The list shows a part of the results.

The assay addresses T1, OsSMF1 (Oryza sativa, UniProt Q6ZLB0 1-436).
T1 sequence: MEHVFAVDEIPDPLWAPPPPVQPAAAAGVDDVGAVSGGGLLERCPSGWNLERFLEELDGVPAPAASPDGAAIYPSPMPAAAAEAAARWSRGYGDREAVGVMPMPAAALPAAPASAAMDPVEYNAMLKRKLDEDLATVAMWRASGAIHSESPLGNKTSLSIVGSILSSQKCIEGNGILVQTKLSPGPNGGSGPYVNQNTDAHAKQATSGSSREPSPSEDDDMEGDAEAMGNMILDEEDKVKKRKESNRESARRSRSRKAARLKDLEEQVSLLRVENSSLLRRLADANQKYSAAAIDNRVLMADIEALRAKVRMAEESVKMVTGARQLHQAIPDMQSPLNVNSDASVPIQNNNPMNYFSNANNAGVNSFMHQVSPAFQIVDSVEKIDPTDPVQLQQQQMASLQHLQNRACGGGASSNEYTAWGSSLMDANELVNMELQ
The experiment in a line: protein-binding microarray (RPBM); PBS, 2% BSA, 51.3 ng/ul salmon testes DNA, 50 uM zinc acetate, 200 nM TF, 25 C, 1 h; high values mean tight binding. The note with it: protein: recombinant; tags: N-terminal polyhistidine and DsRed monomer fusion (pET32a); chain copies: 2; label: CyDye5-dUTP incorporated in the synthesized complementary strand; 3' TTTTT single-stranded linker to array surface; dsDNA, one strand shown. Put shortly: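 Binding signal is reported as fluorescence intensity per feature (arbitrary units) from an Axon 4000B scanner. Incubation used 200 nM of each Ni–NTA-purified, N-terminally polyhistidine- and DsRed-fused transcription factor from E. coli BL21-CodonPlus on a double-stranded custom Agilent array for 1 h at 25 °C, with 50 µM zinc acetate in the buffer, followed by washing.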
As to “CCCCTCCGAATCAAACGTGGCGGCTGACGACCTTCCTTGTCGGAGTCACCTAGTGCAG”, the binding signal was 9350 fluorescence intensity (a.u.). Then “ATTGTCTCCCTCGACTTGCCCTGTTGTCCACGTTGACTCGCGGAGTCACCTAGTGCAG”, with 7350 fluorescence intensity (a.u.); and “CACGGGTCACCGAGCTTGCATTGTCATGTAGTAGTAGGTGCGGAGTCACCTAGTGCAG”, with 35000 fluorescence intensity (a.u.). Take “GAGGCAGCGAGCCCATCTACGTCATCCACAACGTTGTATGCGGAGTCACCTAGTGCAG”: the binding signal was 9270 fluorescence intensity (a.u.).

In the case of “ATCCAAGAGTGTTGTGGGACTGACATTTGGCTTAATTCTGCGGAGTCACCTAGTGCAG”, the binding signal was 4020 fluorescence intensity (a.u.). Turning to “GGTGATTTTATATATATTCACGCATTTCGTGGACCTTCTTCGGAGTCACCTAGTGCAG”, the binding signal is 3210 fluorescence intensity (a.u.). Then “TGCCTTTGATTAATGTCATGATGTCACATGCTGAGATTCACGGAGTCACCTAGTGCAG”, with 8320 fluorescence intensity (a.u.); and “TCTCCCCTACTCATTGTCGGCTGACCTGGAGGTTGCGTTGCGGAGTCACCTAGTGCAG”, with 8240 fluorescence intensity (a.u.); and “CAGGCCGGAAACCGGCCGAGCCCACCCATTAGAAAGGACGCGGAGTCACCTAGTGCAG”, with 22900 fluorescence intensity (a.u.). Take “AGGGGAAAGGTATGGAAATGACCACCATCATCACCAACTACGGAGTCACCTAGTGCAG”: the binding signal is 3950 fluorescence intensity (a.u.).

In the case of “TCCTCCTCCGCCGCCGCCGCCGCCATCATCGTCGTCGTCGCGGAGTCACCTAGTGCAG”, the binding signal is 3270 fluorescence intensity (a.u.). In the case of “AGCAATTTGGCCGCCTGACCCCGTGCCGACGTGGCCCGGCCGGAGTCACCTAGTGCAG”, the binding signal was 13500 fluorescence intensity (a.u.).

On to “TAGCTAACGTGGCGTATACGTGGCTCATTTAACGAGGTCTCGGAGTCACCTAGTGCAG”, for which the binding signal is 12400 fluorescence intensity (a.u.). As for “CGGTGCTGAGTCGTCATCAGTTGATGTTCTCACGAATTCGCGGAGTCACCTAGTGCAG”, the binding signal was 5100 fluorescence intensity (a.u.). As to “CGTCCCCTGCTTTTGACGTGGCATCCACCTTTGAGCTCTCCGGAGTCACCTAGTGCAG”, the binding signal is 18300 fluorescence intensity (a.u.). As for “CCCAAAGCTGACGTACAGCACCGACCCGGTCGGCTGCTCGCGGAGTCACCTAGTGCAG”, the binding signal is 4200 fluorescence intensity (a.u.). “GATCGATAGTTGCACGTTCTGACACATGTCATCTGTACCGCGGAGTCACCTAGTGCAG”: the binding signal is 8110 fluorescence intensity (a.u.). In the case of “TAGATAGATGCATATTGGGTGCTGGATTTCTTGTGATTTCCGGAGTCACCTAGTGCAG”, the binding signal was 23000 fluorescence intensity (a.u.).

With “TCGTCCTCCGCCGCCGGACACGTTGTCGTCGAAAGCGTCACGGAGTCACCTAGTGCAG”, the binding signal is 4840 fluorescence intensity (a.u.).

With “TAATATTTCCTTTCCATTTCACACGTCACAATCCCGTGGGCGGAGTCACCTAGTGCAG”, the binding signal is 14600 fluorescence intensity (a.u.). Turning to “CTCCCGCGCGCCGCCGCCTGCTAGTCCCGGAGACACGCGGCGGAGTCACCTAGTGCAG”, the binding signal is 3480 fluorescence intensity (a.u.). For the sequence “AATTAACTGTATCTGAACATGAAAGCACTACCATACGTCACGGAGTCACCTAGTGCAG”, the binding signal is 4350 fluorescence intensity (a.u.). With “TATAGCCGCCCAAGTTATATACAAATGCATGCATGTCATGCGGAGTCACCTAGTGCAG”, the binding signal is 3170 fluorescence intensity (a.u.). On to “AACTCCAATCTGCGGACGGTACTGGGCCCACGTGTAGACGCGGAGTCACCTAGTGCAG”, for which the binding signal was 3660 fluorescence intensity (a.u.). In the case of “AGGCCCGCACCCGCTGTCACCGCCGCCCACAGCTTCGCCCCGGAGTCACCTAGTGCAG”, the binding signal is 3400 fluorescence intensity (a.u.).

With “ATCGCCTCGCCGCGGCGACGTCCGCGTGGATTCGCGGTGACGGAGTCACCTAGTGCAG”, the binding signal was 3640 fluorescence intensity (a.u.). Turning to “GCTCCCCGGTCTCCGCCGCCGTTCTCTGACATGCCATGCCCGGAGTCACCTAGTGCAG”, the binding signal was 3200 fluorescence intensity (a.u.). As to “CGTCCTCCTTGGTGACCAGGTTGGGGAAGAGGCGCGTCAGCGGAGTCACCTAGTGCAG”, the binding signal was 3520 fluorescence intensity (a.u.). “TCCCCGCGCCTACGTGTGCGCCATCGCCTACCGCATTCAGCGGAGTCACCTAGTGCAG”: the binding signal was 9510 fluorescence intensity (a.u.). On to “GTCTTCTCCCAAAAGAAGCCCACGTATTCCATATTTCCGTCGGAGTCACCTAGTGCAG”, for which the binding signal is 3840 fluorescence intensity (a.u.). Regarding “AATCCCAAAACTTTCATGTTCAATTTCATACAAACAATTCCGGAGTCACCTAGTGCAG”, the binding signal is 3240 fluorescence intensity (a.u.). On to “GCTTAGTGTTGAGATGATCCATGTCATCTCGTGCTAGCTACGGAGTCACCTAGTGCAG”, for which the binding signal was 7710 fluorescence intensity (a.u.). As for “CGCGAGCCTTGCGCGTTGGGCCTGGCACGTGTGCGGCCCACGGAGTCACCTAGTGCAG”, the binding signal is 3610 fluorescence intensity (a.u.).

Consider “GAACCGAACGCGACGCAGCGCGGCGAAGTCAGCAGCTTCCCGGAGTCACCTAGTGCAG”, for which the binding signal was 4580 fluorescence intensity (a.u.). Consider “GCTGCCGACGCAGCTCCGGCCACGACCGCCGCCGTGCGTGCGGAGTCACCTAGTGCAG”, for which the binding signal was 3920 fluorescence intensity (a.u.). For the sequence “TTCCTTCCCGAGGCCTACGTGTCCCCTCCCGCATCTCCACCGGAGTCACCTAGTGCAG”, the binding signal is 13000 fluorescence intensity (a.u.). As for “ACTGTCCATTGCATTTGCACGTACGCAGTCATCAACAGATCGGAGTCACCTAGTGCAG”, the binding signal is 3140 fluorescence intensity (a.u.). The figure for “CAGTGTTGCCGCCGTCATCCTCCCAGCGCCCTATTCACCTCGGAGTCACCTAGTGCAG” is 5000 fluorescence intensity (a.u.); for “AACTGAAAATTTTATACAACTTTTAGGTATTGCAAAGGACCGGAGTCACCTAGTGCAG” it is 31600 fluorescence intensity (a.u.). “GCCACGGTCTCGTTGTGATGTTGTGATATTAGGTTCACTGCGGAGTCACCTAGTGCAG”: the binding signal is 46600 fluorescence intensity (a.u.). For “GTGATTAGCCCATACTAATTGGGCCATGATGGGATTCTGACGGAGTCACCTAGTGCAG”, the binding signal was 28300 fluorescence intensity (a.u.). As to “GTGCAGAAGTTACCACGTCATTCCTGGGCGGCTGCCGCGTCGGAGTCACCTAGTGCAG”, the binding signal is 10800 fluorescence intensity (a.u.).

The values above are taken from publication PMC7819943, “Rice protein-binding microarrays: a tool to detect cis-acting elements near promoter regions in rice”.
